# Experimental data as given in the supplement of paper PMC10849652.
# Chains of the proteins cited; added tags and fusions are not shown. Lines headed by an entry give the natural chain unless they say otherwise; changes in a name come on top.
# UniProt Q86X29: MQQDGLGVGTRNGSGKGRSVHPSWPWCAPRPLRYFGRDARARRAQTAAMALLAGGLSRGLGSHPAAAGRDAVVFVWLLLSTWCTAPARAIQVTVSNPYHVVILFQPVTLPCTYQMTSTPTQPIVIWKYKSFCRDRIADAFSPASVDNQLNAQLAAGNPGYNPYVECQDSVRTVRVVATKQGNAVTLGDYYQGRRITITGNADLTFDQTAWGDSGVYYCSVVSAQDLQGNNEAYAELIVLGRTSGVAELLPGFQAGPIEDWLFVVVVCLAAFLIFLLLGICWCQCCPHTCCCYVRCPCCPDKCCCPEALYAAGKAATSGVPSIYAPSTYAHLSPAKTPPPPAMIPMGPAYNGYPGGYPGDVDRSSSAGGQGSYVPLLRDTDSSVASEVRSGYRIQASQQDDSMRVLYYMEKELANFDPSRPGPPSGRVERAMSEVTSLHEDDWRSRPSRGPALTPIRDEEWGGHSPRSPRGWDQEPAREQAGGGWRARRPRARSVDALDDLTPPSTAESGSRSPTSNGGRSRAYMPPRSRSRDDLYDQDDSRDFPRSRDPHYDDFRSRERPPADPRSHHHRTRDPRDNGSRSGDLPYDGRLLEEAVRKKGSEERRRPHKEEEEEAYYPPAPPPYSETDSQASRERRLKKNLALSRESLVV
# UniProt Q9Y5V3: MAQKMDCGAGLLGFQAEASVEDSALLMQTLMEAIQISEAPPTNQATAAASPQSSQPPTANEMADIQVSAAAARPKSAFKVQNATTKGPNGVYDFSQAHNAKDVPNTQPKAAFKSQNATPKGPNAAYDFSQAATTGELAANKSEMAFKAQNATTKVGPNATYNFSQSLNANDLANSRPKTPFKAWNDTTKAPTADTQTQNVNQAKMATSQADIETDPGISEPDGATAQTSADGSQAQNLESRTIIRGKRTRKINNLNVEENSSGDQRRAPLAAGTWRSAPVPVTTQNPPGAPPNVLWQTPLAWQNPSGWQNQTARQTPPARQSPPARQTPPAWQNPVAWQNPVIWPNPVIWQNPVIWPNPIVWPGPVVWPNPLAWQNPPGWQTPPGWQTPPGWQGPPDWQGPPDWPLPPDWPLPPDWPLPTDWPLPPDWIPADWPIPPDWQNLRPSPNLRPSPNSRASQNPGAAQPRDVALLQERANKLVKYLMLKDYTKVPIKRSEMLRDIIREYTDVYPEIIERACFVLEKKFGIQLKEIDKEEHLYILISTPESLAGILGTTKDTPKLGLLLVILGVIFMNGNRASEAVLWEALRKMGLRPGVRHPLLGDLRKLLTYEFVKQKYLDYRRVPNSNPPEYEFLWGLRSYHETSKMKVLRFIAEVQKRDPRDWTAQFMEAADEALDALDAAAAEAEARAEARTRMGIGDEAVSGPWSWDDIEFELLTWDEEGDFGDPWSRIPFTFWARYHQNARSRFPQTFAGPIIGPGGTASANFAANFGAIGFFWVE
# UniProt Q9H089: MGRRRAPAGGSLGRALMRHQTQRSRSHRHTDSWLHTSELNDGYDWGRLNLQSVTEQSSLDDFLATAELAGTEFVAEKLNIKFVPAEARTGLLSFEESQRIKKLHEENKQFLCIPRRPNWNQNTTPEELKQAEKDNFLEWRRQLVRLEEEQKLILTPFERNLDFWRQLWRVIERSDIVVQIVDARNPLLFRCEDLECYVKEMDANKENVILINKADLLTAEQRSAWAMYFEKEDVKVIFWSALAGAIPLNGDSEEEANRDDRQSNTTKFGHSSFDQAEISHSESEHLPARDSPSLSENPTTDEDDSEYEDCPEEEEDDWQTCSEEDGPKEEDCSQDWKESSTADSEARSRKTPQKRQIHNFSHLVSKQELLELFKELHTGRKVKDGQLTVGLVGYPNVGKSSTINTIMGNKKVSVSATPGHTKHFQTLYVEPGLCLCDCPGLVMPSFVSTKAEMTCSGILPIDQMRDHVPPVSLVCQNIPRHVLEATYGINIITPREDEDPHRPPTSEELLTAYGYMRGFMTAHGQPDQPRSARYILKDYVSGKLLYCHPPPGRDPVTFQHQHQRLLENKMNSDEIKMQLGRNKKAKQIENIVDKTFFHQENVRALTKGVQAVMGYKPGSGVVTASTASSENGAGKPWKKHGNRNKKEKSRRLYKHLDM
# UniProt O95819: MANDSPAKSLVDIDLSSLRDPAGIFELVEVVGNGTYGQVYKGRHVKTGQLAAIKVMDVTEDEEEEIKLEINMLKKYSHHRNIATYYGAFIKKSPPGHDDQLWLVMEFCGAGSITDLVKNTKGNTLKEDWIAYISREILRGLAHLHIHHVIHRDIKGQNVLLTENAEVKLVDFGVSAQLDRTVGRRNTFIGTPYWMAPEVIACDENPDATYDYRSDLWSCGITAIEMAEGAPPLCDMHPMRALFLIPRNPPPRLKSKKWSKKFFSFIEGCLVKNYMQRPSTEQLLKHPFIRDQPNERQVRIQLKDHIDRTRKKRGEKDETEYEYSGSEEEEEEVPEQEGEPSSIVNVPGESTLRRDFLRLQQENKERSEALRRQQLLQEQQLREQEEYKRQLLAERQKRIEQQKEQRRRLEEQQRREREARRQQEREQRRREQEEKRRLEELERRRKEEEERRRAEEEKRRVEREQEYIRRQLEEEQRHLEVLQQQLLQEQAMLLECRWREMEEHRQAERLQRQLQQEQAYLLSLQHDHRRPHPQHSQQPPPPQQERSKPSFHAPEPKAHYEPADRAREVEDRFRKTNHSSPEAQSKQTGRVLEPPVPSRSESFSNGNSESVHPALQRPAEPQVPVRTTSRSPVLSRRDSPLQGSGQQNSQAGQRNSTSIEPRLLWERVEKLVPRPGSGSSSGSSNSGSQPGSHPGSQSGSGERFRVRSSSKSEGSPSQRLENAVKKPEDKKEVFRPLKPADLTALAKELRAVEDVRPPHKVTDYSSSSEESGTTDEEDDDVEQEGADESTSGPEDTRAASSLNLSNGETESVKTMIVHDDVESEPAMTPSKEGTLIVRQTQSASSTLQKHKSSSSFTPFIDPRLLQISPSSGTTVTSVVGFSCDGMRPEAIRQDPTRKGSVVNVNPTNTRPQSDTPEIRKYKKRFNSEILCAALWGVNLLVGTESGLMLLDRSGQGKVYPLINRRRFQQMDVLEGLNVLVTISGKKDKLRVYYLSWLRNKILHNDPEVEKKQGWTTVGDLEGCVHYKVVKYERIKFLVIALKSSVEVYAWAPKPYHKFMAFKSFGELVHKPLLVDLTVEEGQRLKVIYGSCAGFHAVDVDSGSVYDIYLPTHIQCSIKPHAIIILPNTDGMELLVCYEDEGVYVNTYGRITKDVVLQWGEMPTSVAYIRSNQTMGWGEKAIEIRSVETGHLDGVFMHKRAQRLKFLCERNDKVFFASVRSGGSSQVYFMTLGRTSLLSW
# UniProt Q9BPZ7, whole entry, looked up: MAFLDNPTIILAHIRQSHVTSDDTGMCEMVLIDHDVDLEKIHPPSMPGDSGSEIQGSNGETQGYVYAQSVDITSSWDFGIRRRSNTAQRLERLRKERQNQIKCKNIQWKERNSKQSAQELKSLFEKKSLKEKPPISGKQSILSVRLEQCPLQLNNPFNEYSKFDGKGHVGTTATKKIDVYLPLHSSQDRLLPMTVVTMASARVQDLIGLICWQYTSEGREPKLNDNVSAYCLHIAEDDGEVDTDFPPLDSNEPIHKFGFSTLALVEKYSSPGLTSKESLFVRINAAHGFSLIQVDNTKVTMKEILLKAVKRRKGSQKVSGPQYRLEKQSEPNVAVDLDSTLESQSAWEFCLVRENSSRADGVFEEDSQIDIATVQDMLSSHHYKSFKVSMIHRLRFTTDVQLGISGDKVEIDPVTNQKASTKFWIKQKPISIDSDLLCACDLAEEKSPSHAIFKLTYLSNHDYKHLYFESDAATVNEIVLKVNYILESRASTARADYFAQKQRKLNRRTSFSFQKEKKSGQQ
# UniProt Q15759, whole entry, looked up: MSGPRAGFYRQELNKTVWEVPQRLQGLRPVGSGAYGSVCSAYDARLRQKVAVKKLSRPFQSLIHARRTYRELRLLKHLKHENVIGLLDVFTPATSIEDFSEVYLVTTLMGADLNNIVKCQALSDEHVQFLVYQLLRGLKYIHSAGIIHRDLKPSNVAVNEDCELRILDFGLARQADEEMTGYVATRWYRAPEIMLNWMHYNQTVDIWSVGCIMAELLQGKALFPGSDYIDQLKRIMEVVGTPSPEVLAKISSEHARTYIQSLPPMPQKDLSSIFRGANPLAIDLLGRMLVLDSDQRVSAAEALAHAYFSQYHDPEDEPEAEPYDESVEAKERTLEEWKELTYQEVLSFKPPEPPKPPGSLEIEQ
# UniProt P27816: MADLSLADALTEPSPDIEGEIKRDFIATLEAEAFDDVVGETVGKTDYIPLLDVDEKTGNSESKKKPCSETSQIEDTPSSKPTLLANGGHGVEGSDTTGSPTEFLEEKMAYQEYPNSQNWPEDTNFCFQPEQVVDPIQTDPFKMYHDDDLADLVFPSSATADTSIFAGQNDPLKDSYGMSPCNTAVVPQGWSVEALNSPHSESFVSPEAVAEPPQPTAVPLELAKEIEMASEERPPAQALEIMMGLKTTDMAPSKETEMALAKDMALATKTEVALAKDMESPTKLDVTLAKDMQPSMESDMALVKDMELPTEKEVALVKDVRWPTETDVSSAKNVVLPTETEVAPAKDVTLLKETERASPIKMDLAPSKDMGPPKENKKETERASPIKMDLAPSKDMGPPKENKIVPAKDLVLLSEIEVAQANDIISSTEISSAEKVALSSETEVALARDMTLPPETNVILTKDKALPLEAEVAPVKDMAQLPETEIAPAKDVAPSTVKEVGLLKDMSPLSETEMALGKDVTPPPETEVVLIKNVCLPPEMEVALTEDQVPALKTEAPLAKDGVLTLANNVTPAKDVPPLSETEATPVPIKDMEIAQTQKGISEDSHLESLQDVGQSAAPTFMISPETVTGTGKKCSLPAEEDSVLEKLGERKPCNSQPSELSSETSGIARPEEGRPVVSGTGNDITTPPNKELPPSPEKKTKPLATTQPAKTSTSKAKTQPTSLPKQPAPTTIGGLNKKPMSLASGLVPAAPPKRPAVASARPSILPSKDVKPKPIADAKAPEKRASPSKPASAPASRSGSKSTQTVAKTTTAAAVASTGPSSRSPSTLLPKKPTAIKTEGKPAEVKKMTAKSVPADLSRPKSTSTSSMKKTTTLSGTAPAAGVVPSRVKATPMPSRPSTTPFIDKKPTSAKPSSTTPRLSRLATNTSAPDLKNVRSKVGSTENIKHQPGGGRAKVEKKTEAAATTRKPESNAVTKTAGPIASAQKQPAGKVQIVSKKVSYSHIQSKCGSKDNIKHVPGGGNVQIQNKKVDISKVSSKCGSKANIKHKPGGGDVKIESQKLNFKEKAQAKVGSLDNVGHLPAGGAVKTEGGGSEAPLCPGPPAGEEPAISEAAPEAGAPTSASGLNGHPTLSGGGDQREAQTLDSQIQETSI
# UniProt Q13164: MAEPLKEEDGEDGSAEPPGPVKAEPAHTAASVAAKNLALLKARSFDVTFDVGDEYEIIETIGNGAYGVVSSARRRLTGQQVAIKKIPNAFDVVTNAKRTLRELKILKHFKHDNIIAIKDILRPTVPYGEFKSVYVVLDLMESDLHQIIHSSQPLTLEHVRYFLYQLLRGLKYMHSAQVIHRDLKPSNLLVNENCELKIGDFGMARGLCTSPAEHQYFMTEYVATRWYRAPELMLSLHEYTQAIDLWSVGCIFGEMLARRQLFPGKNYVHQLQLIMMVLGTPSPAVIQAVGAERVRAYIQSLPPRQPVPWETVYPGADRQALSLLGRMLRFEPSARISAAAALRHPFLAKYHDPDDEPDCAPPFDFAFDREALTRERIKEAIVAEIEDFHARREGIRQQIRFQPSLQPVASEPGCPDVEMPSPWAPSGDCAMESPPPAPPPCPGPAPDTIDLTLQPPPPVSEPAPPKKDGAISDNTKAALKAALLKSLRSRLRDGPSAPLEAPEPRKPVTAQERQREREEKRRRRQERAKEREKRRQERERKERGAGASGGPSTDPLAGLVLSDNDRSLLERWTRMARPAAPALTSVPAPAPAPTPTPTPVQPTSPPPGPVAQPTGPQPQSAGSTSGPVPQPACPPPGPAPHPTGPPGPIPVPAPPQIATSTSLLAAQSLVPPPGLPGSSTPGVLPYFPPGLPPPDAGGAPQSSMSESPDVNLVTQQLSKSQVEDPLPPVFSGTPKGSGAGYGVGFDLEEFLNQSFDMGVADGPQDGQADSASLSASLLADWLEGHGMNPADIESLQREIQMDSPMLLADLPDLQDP
# UniProt P43361: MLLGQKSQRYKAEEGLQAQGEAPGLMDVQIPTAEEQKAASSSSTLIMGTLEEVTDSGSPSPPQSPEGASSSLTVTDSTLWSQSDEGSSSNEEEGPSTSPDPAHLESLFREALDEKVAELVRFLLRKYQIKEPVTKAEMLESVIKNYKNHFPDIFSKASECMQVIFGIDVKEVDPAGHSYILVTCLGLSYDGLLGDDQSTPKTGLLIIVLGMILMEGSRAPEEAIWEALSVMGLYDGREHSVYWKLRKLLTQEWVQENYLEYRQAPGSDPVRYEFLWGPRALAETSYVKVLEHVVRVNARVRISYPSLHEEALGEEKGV
# This is one part of the list.
# What was measured:
# Test in all cases: log2 fold change, soluble protein after heating vs DMSO (PISA); higher = thermal stabilisation; K562 cells, 10 uM, 30 min; active = over 0.2 and 3.5 SD of the protein, either way, in both replicates (recomputed)
# crizotinib = compound: C[C@@H](Oc1cc(-c2cnn(C3CCNCC3)c2)cnc1N)c1c(Cl)ccc(F)c1Cl [crizotinib]
# Procedure, shortened: (§1)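 Quantification of soluble protein used TMTpro 16plex LC-MS/MS, with channel sums equalised. Samples were the supernatant after 21,000xg for 90 min of pooled aliquots from K562 cells (2×10^6 cells/mL) treated with 10 μM compound for 30 min, heated for 3 min over 48°C-58°C, and extracted in PBS with 0.5% NP-40 at 4°C. Values, from duplicates, describe thermal stability against control samples on a log2 fold-change scale.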
# [1] = compound: C[C@@H]1COCCN1C2=NC(=NC(=C2)C3(CC3)S(=O)(=O)C)C4=C5C=CNC5=CC=C4
# Procedure, shortened: as §1
# [2] = compound: C[C@H](C1=CC=C(C=C1)C(=O)NC2=C3C=CNC3=NC=C2)N
# Procedure, shortened: as §1
# gandotinib = compound: Cc1cc(Nc2cc(CN3CCOCC3)c3nc(C)c(Cc4ccc(Cl)cc4F)n3n2)n[nH]1 [gandotinib]
# Procedure, shortened: as §1
# tozasertib = compound: Cc1cc(Nc2cc(N3CCN(C)CC3)nc(Sc3ccc(NC(=O)C4CC4)cc3)n2)n[nH]1 [tozasertib]
# Procedure, shortened: as §1
# doramapimod = compound: Cc1ccc(-n2nc(C(C)(C)C)cc2NC(=O)Nc2ccc(OCCN3CCOCC3)c3ccccc23)cc1 [doramapimod]
# Procedure, shortened: as §1
# ispinesib = compound: Cc1ccc(C(=O)N(CCCN)[C@@H](c2nc3cc(Cl)ccc3c(=O)n2Cc2ccccc2)C(C)C)cc1 [ispinesib]
# Procedure, shortened: as §1
# bafetinib = compound: Cc1ccc(NC(=O)c2ccc(CN3CC[C@H](N(C)C)C3)c(C(F)(F)F)c2)cc1Nc1nccc(-c2cncnc2)n1 [bafetinib]
# Procedure, shortened: as §1
# [3] = compound: Cc1cccc(CC(=O)N2CCc3c2ccc(-c2cn(C)c4ncnc(N)c24)c3F)n1
# Procedure, shortened: as §1
# [4] = compound: Cn1cc(-c2ccc3c(c2)CCN3C(=O)Cc2cccc(C(F)(F)F)c2)c2c(N)ncnc21
# Procedure, shortened: as §1
# [5] = compound: Cn1cc(-c2ccc3nnc(C(F)(F)c4ccc5ncccc5c4)n3n2)cn1
# Procedure, shortened: as §1
# tipifarnib = compound: Cn1cncc1[C@@](N)(c1ccc(Cl)cc1)c1ccc2c(c1)c(-c1cccc(Cl)c1)cc(=O)n2C [tipifarnib]
# Procedure, shortened: as §1
# mubritinib = compound: FC(F)(F)c1ccc(/C=C/c2nc(COc3ccc(CCCCn4ccnn4)cc3)co2)cc1 [mubritinib]
# Procedure, shortened: as §1
# [6] = compound: CS(=O)(=O)c1ccc(-c2cnc(N)c(C(=O)Nc3ccccc3)n2)cc1
# Procedure, shortened: as §1
# [7] = compound: Cc1cc(SCc2sc(-c3ccc(C(F)(F)F)cc3)nc2C)ccc1OCC(=O)O
# Procedure, shortened: as §1
# dasatinib = compound: Cc1nc(Nc2ncc(C(=O)Nc3c(C)cccc3Cl)s2)cc(N2CCN(CCO)CC2)n1 [dasatinib]
# Procedure, shortened: as §1
# nilotinib = compound: Cc1cn(-c2cc(NC(=O)c3ccc(C)c(Nc4nccc(-c5cccnc5)n4)c3)cc(C(F)(F)F)c2)cn1 [nilotinib]
# Procedure, shortened: as §1
# [8] = compound: Cc1nc(Nc2n[nH]c3c2CN(C(=O)N[C@H](CN(C)C)c2ccccc2)C3(C)C)c2sccc2n1
# Procedure, shortened: as §1
# [9] = compound: Cc1ncc(-c2ccnc(Nc3ccc(S(C)(=O)=O)cc3)n2)n1C(C)C
# Procedure, shortened: as §1
# duvelisib = compound: C[C@H](Nc1ncnc2nc[nH]c12)c1cc2cccc(Cl)c2c(=O)n1-c1ccccc1 [duvelisib]
# Procedure, shortened: as §1
target,measurement,setting,value
MAD1L1 (UniProt Q9Y6D9),log2 fold change,crizotinib,inactive: -0.08
same,log2 fold change,[1],inactive: -0.021
same,log2 fold change,[2],inactive: 0.524
same,log2 fold change,gandotinib,inactive: -0.053
same,log2 fold change,tozasertib,inactive: -0.137
same,log2 fold change,doramapimod,inactive: -0.156
same,log2 fold change,ispinesib,inactive: -0.099
same,log2 fold change,bafetinib,inactive: 0.047
same,log2 fold change,[3],inactive: -0.03
same,log2 fold change,[4],inactive: 0.027
same,log2 fold change,[5],inactive: 0.014
same,log2 fold change,tipifarnib,inactive: -0.235
same,log2 fold change,mubritinib,inactive: -0.129
LSR isoform 3 (UniProt Q86X29),log2 fold change,[6],inactive: 0.052
same,log2 fold change,[2],inactive: -0.138
same,log2 fold change,[7],inactive: -0.118
same,log2 fold change,dasatinib,inactive: -0.074
same,log2 fold change,[4],inactive: 0.026
same,log2 fold change,tipifarnib,inactive: 0.101
same,log2 fold change,mubritinib,inactive: 0.435
MAGED1 isoform 2 (UniProt Q9Y5V3),log2 fold change,[6],inactive: -0.012
same,log2 fold change,[1],inactive: 0.096
same,log2 fold change,[2],inactive: 0.205
same,log2 fold change,[7],inactive: -0.008
same,log2 fold change,nilotinib,inactive: -0.035
same,log2 fold change,[8],inactive: -0.008
same,log2 fold change,dasatinib,inactive: 0.057
same,log2 fold change,[9],inactive: -0.082
same,log2 fold change,[4],inactive: 0.111
same,log2 fold change,tipifarnib,inactive: -0.104
LSG1 (UniProt Q9H089),log2 fold change,crizotinib,inactive: -0.084
same,log2 fold change,[1],inactive: -0.165
same,log2 fold change,[2],inactive: 0.447
same,log2 fold change,duvelisib,inactive: -0.068
same,log2 fold change,tozasertib,inactive: -0.016
same,log2 fold change,[7],inactive: 0.144
same,log2 fold change,doramapimod,inactive: 0.159
same,log2 fold change,ispinesib,inactive: 0.006
same,log2 fold change,dasatinib,inactive: -0.001
same,log2 fold change,[4],inactive: -0.048
same,log2 fold change,[5],inactive: -0.143
same,log2 fold change,tipifarnib,inactive: 0.304
same,log2 fold change,mubritinib,inactive: 0.068
MAPT isoform 9 (UniProt P10636),log2 fold change,[6],inactive: 0.031
same,log2 fold change,[1],inactive: 0.075
same,log2 fold change,bafetinib,inactive: -0.327
same,log2 fold change,tipifarnib,inactive: 0.047
LRRCC1 (UniProt Q9C099),log2 fold change,[7],inactive: 0.013
same,log2 fold change,ispinesib,inactive: -0.301
same,log2 fold change,dasatinib,inactive: 0.017
same,log2 fold change,[5],inactive: 0.063
MAP4K4 isoform 6 (UniProt O95819),log2 fold change,[6],inactive: -0.019
same,log2 fold change,[2],inactive: -0.305
same,log2 fold change,[7],inactive: -0.025
same,log2 fold change,nilotinib,inactive: 0.047
same,log2 fold change,[8],inactive: -0.034
same,log2 fold change,dasatinib,inactive: -0.001
same,log2 fold change,[9],inactive: 0.008
same,log2 fold change,[4],inactive: 0.1
same,log2 fold change,mubritinib,inactive: 0.02
MAPKAP1 (UniProt Q9BPZ7),log2 fold change,[1],inactive: -0.169
same,log2 fold change,gandotinib,inactive: 0.083
same,log2 fold change,tozasertib,inactive: 0.273
same,log2 fold change,ispinesib,inactive: -0.287
same,log2 fold change,[3],inactive: 0.155
same,log2 fold change,[5],inactive: -0.065
MAPK11 (UniProt Q15759),log2 fold change,crizotinib,inactive: -0.115
same,log2 fold change,gandotinib,inactive: -0.083
same,log2 fold change,ispinesib,inactive: -0.334
same,log2 fold change,[3],inactive: -0.116
same,log2 fold change,[5],inactive: -0.024
MAP4 isoform 5 (UniProt P27816),log2 fold change,[6],inactive: 0.096
same,log2 fold change,[1],inactive: -0.159
same,log2 fold change,ispinesib,inactive: -0.042
same,log2 fold change,bafetinib,inactive: -0.028
same,log2 fold change,nilotinib,inactive: -0.181
same,log2 fold change,[8],inactive: 0.028
same,log2 fold change,[9],inactive: 0
same,log2 fold change,[5],inactive: -0.037
same,log2 fold change,tipifarnib,inactive: 0.066
same,log2 fold change,mubritinib,inactive: 0.027
MAPK7 (UniProt Q13164),log2 fold change,crizotinib,active: 0.773
same,log2 fold change,[1],inactive: 0.03
same,log2 fold change,gandotinib,inactive: 0.304
same,log2 fold change,doramapimod,inactive: 0.057
same,log2 fold change,[3],inactive: 0.034
MAML2 (UniProt Q8IZL2),log2 fold change,ispinesib,inactive: 0.089
same,log2 fold change,[5],inactive: -0.033
"LSM14A, A0A140TA76",log2 fold change,tozasertib,inactive: -0.008
same,log2 fold change,mubritinib,inactive: 0.133
MAGEA8 (UniProt P43361),log2 fold change,crizotinib,inactive: -0.003
same,log2 fold change,[2],inactive: 0.134
same,log2 fold change,gandotinib,active: -0.472
same,log2 fold change,[7],inactive: -0.002
same,log2 fold change,doramapimod,inactive: 0.037
same,log2 fold change,ispinesib,inactive: -0.034
same,log2 fold change,bafetinib,inactive: 0.022
same,log2 fold change,[3],inactive: -0.265
same,log2 fold change,nilotinib,active: -0.372
same,log2 fold change,[8],inactive: -0.207
same,log2 fold change,dasatinib,inactive: 0.019
same,log2 fold change,[9],inactive: 0.016
same,log2 fold change,[4],inactive: 0.008
same,log2 fold change,[5],inactive: -0.003
same,log2 fold change,tipifarnib,inactive: -0.01
MAFG (UniProt O15525),log2 fold change,[1],inactive: -0.248
same,log2 fold change,[2],inactive: -0.011
same,log2 fold change,gandotinib,inactive: 0.055
same,log2 fold change,ispinesib,inactive: -0.079
same,log2 fold change,[3],inactive: -0.104
same,log2 fold change,[4],inactive: -0.171
same,log2 fold change,[5],inactive: -0.049
"LYPLA1, A0A087X1K9",log2 fold change,duvelisib,inactive: 0.885
same,log2 fold change,[7],inactive: 0.527
same,log2 fold change,ispinesib,inactive: -0.007
same,log2 fold change,dasatinib,inactive: -0.296
same,log2 fold change,[5],inactive: 0.191
same,log2 fold change,mubritinib,inactive: 0.314

# Five entries drawn at random from the list so far, as already listed:
target,measurement,setting,value
"LSM14A, A0A140TA76",log2 fold change,tozasertib,inactive: -0.008
LSR isoform 3 (UniProt Q86X29),log2 fold change,dasatinib,inactive: -0.074
MAGED1 isoform 2 (UniProt Q9Y5V3),log2 fold change,tipifarnib,inactive: -0.104
MAFG (UniProt O15525),log2 fold change,ispinesib,inactive: -0.079
MAGED1 isoform 2 (UniProt Q9Y5V3),log2 fold change,dasatinib,inactive: 0.057
